In assay [1] the target is Sirt5, endogenous in bone marrow-derived macrophages (mouse (endogenous in BMDMs)) (UniProt Q8K2C6). In words: co-IP.
Assay [2] has as its target Sirtuin 5 (Sirt5), overexpressed in HEK293T cells (mouse (cDNA of the murine cell line RAW264.7)) (UniProt Q8K2C6). Kind of assay: co-IP; HEK293T cells transfected with the expression plasmids for 24 h, lysed (Cell Signaling lysis buffer, protease inhibitors), lysate incubated with agarose affinity gel antibody for 2 h, immunoblot. In general terms: A western blot detects proteins with antibodies after separation by electrophoresis.

Amino acid sequences for entries named in this document (tags omitted). A change or cut given only in a name is not applied to a line headed by its entry. Chains listed by the source or under a name are the forms on record and can include a tag or linker. Residues count along the entry.
Sirtuin 5 (Sirt5), overexpressed in HEK293T cells (mouse (cDNA of the murine cell line RAW264.7)) (Q8K2C6, residues 37-310): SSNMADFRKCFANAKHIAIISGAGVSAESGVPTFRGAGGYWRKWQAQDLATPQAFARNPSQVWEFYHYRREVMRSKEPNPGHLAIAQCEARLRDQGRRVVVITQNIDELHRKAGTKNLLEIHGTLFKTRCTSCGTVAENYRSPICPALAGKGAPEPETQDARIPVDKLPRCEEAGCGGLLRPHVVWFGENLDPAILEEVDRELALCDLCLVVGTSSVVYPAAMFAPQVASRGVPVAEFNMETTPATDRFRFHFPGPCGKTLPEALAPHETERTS
Sirt5-H158Y, overexpressed in HEK293T cells (mouse (cDNA of the murine cell line RAW264.7)) (Q8K2C6, form named): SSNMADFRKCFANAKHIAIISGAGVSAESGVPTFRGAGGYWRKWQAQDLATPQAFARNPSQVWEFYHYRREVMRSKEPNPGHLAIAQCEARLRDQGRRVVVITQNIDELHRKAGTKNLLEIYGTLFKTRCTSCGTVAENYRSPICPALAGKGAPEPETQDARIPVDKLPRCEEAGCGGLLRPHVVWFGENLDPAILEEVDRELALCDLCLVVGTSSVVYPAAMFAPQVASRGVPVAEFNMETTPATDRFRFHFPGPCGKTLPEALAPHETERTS
UniProt Q62167: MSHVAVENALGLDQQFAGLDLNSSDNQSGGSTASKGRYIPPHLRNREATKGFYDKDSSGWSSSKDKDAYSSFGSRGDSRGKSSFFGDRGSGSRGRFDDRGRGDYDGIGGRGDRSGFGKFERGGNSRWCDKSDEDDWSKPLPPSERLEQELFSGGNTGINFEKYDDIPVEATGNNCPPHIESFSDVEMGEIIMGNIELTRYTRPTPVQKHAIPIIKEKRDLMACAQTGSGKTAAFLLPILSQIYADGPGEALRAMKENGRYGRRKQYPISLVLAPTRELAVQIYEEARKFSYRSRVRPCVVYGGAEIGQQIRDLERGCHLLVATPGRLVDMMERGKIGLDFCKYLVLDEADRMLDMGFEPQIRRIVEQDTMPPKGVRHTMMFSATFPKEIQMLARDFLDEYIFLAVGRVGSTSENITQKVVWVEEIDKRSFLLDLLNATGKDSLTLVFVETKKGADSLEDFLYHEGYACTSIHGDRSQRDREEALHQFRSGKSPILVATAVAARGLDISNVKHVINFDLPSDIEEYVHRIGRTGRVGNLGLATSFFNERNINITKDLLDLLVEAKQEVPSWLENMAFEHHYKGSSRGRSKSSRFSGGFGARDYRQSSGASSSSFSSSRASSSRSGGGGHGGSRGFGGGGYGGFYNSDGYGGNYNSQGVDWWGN

The target of assay [3] is Sirt5-H158Y, overexpressed in HEK293T cells (mouse (cDNA of the murine cell line RAW264.7)) (UniProt Q8K2C6). The description is as above.

These are yes or no findings as the source states them, for the method shown. In cells and extracts the contact can be indirect. Some results given as binding are weak or reduced against the parent protein; the word gives no strength.

Experimental findings from publication PMC8210596 are described below.

“DDX3, endogenous in bone marrow-derived macrophages (from UniProt Q62167 1-662)”: the binding entry in assay [1] is given as “binds”.

As to “DDX3X (DDX3), overexpressed in HEK293T cells (from UniProt Q62167 1-662)”, the binding entry in assay [2] is listed as “binds”; in assay [3], “binds weakly”.
